# Test results from article PMC6126873.
# By UniProt entry, the sequences of proteins in these tests, tags left out.
# UniProt Q80X56: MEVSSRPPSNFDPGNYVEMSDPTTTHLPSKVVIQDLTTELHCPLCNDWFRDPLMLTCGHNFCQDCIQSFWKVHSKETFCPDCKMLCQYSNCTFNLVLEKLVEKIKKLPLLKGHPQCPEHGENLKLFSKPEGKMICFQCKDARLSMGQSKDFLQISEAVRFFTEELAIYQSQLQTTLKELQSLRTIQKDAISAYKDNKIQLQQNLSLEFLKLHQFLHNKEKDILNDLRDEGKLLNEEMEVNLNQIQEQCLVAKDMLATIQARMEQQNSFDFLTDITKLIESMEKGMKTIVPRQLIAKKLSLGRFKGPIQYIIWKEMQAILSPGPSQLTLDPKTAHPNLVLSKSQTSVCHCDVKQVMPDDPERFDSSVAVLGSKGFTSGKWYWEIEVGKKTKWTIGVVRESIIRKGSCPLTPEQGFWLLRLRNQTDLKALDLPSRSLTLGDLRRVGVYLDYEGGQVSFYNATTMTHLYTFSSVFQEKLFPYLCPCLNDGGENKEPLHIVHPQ
# Results are given in words; binding and its absence hold for the method and conditions named. For some of these results: Binding seen in cells or lysates may run through a third protein. Some binding calls cover weakened binding; strength is not graded here. For some of these results: Tags and fused reporters may be left off the sequences shown.
# T1: endogenous TRIM69 (human (endogenous in 293T)) (UniProt Q86WT6)
# T1 sequence: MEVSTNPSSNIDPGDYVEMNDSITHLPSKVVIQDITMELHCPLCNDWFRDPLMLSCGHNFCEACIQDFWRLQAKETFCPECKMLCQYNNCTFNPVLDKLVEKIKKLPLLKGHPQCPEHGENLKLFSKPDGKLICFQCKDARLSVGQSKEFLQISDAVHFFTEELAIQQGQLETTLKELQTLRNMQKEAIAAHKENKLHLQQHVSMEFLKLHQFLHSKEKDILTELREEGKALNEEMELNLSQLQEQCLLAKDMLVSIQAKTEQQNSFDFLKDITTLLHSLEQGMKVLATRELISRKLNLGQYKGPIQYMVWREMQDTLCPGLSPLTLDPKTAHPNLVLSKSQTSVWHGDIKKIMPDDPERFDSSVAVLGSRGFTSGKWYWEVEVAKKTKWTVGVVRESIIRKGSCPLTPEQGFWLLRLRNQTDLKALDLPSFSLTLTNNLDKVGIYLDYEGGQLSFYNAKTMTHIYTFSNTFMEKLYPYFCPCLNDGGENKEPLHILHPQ
# T2: TRIM69-Myc (human) (UniProt Q86WT6)
# T2 sequence: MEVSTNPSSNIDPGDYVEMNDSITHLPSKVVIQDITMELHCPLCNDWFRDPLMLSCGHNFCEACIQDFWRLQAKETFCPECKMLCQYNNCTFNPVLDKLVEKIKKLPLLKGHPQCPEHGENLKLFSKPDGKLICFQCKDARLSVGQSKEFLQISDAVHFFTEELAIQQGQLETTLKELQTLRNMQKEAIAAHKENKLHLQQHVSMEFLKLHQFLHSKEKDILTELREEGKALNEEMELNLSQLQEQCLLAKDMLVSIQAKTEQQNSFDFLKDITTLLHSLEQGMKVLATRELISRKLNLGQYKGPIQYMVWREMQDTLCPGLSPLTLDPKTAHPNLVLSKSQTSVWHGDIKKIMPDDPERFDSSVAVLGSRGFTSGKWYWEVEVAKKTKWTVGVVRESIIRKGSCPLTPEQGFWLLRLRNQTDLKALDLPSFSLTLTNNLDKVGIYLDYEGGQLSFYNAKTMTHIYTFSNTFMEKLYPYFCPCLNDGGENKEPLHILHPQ
# Assays:
# [1] = biological target: NS3-Flag (Dengue virus type 2 (DENV-2), New Guinea C (NGC) strain) (UniProt P14340); experiment: co-IP; cells co-transfected with NS2B, NS3 and TRIM69 (or control vector) for 48 h, then treated with MG132; immunoprecipitation and western blots
# [2] = biological target: T1, endogenous TRIM69 (human (endogenous in 293T)); experiment: co-IP; endogenous TRIM69 and NS3 from lysates of 293T cells infected with DENV-2 for 48 h; IP with TRIM69 antibody or NS3 antibody; IgG as control
# [3] = biological target: T2, TRIM69-Myc (human); experiment: co-IP; 293T cells transfected with NS3-Flag and TRIM69-Myc; IP with Flag antibody or, reciprocally, with Myc antibody overnight at 4 C, protein A/G 4 h; western blot
# [4] = biological target: DENV NS3 from DENV-2 infected B16F10 cells (Dengue virus type 2 (DENV-2), New Guinea C (NGC) strain) (UniProt P14340); experiment: co-IP; endogenous mTRIM69 and NS3 from lysates of B16F10 cells infected with DENV-2 for 48 h
# [5] = biological target: GST-NS3 (Dengue virus type 2 (DENV-2), New Guinea C (NGC) strain) (UniProt P14340); experiment: pull-down; recombinant GST-NS3 (GST as control) incubated with immunoprecipitation purified TRIM69-Myc; pulled out by GST agarose; western blot; both purified
# [6] = biological target: NS3-Flag (Dengue virus type 2 (DENV-2), New Guinea C (NGC) strain) (UniProt P14340); experiment: co-IP; 293T cells transfected with NS3-Flag and TRIM69-Myc; IP with Flag antibody or, reciprocally, with Myc antibody overnight at 4 C, protein A/G 4 h; western blot
# [7] = biological target: DENV NS3 from DENV-2 infected 293T cells (Dengue virus type 2 (DENV-2), New Guinea C (NGC) strain) (UniProt P14340); experiment: co-IP; endogenous TRIM69 and NS3 from lysates of 293T cells infected with DENV-2 for 48 h; IP with TRIM69 antibody or NS3 antibody; IgG as control
molecule,measurement,setting,value
DENV NS2B (from UniProt P14340 1346-1475),binding,[1],binds
DENV NS3 from DENV-2 infected 293T cells (from UniProt P14340 1476-2093),binding,[2],binds
NS3-Flag (from UniProt P14340 1476-2093),binding,[3],binds
endogenous mTRIM69 (from UniProt Q80X56 1-500),binding,[4],binds
"TRIM69-Myc (protein, UniProt Q86WT6 1-500) MEVSTNPSSNIDPGDYVEMNDSITHLPSKVVIQDITMELHCPLCNDWFRDPLMLSCGHNFCEACIQDFWRLQAKETFCPECKMLCQYNNCTFNPVLDKLVEKIKKLPLLKGHPQCPEHGENLKLFSKPDGKLICFQCKDARLSVGQSKEFLQISDAVHFFTEELAIQQGQLETTLKELQTLRNMQKEAIAAHKENKLHLQQHVSMEFLKLHQFLHSKEKDILTELREEGKALNEEMELNLSQLQEQCLLAKDMLVSIQAKTEQQNSFDFLKDITTLLHSLEQGMKVLATRELISRKLNLGQYKGPIQYMVWREMQDTLCPGLSPLTLDPKTAHPNLVLSKSQTSVWHGDIKKIMPDDPERFDSSVAVLGSRGFTSGKWYWEVEVAKKTKWTVGVVRESIIRKGSCPLTPEQGFWLLRLRNQTDLKALDLPSFSLTLTNNLDKVGIYLDYEGGQLSFYNAKTMTHIYTFSNTFMEKLYPYFCPCLNDGGENKEPLHILHPQ",binding,[5],binds
same,binding,[6],binds
"endogenous TRIM69 (protein, UniProt Q86WT6 1-500) MEVSTNPSSNIDPGDYVEMNDSITHLPSKVVIQDITMELHCPLCNDWFRDPLMLSCGHNFCEACIQDFWRLQAKETFCPECKMLCQYNNCTFNPVLDKLVEKIKKLPLLKGHPQCPEHGENLKLFSKPDGKLICFQCKDARLSVGQSKEFLQISDAVHFFTEELAIQQGQLETTLKELQTLRNMQKEAIAAHKENKLHLQQHVSMEFLKLHQFLHSKEKDILTELREEGKALNEEMELNLSQLQEQCLLAKDMLVSIQAKTEQQNSFDFLKDITTLLHSLEQGMKVLATRELISRKLNLGQYKGPIQYMVWREMQDTLCPGLSPLTLDPKTAHPNLVLSKSQTSVWHGDIKKIMPDDPERFDSSVAVLGSRGFTSGKWYWEVEVAKKTKWTVGVVRESIIRKGSCPLTPEQGFWLLRLRNQTDLKALDLPSFSLTLTNNLDKVGIYLDYEGGQLSFYNAKTMTHIYTFSNTFMEKLYPYFCPCLNDGGENKEPLHILHPQ",binding,[7],binds
